Results: publication PMC4361615
No constants are given. Whether binding was seen depends on the method and setting. Binding seen in cells or lysates may run through a third protein. Some results given as binding are weak or reduced against the parent protein; the word gives no strength.

Chains of the proteins cited; added tags and fusions are not shown.
UniProt Q96CV9: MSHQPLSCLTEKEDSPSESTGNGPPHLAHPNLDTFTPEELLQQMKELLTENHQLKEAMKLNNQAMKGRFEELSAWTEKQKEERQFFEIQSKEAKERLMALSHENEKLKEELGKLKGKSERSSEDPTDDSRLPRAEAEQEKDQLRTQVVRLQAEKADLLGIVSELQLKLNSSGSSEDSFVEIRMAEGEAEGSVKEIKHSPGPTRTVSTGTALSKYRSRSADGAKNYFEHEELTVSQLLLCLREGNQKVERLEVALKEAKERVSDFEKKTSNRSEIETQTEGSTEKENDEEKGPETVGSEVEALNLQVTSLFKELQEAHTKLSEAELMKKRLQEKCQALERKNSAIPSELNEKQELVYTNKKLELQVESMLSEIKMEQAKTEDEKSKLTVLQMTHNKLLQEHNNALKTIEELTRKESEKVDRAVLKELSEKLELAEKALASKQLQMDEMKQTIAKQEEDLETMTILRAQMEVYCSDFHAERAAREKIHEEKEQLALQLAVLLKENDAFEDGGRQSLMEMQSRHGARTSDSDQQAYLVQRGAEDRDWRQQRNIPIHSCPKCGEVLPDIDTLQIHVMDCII
UniProt O88522: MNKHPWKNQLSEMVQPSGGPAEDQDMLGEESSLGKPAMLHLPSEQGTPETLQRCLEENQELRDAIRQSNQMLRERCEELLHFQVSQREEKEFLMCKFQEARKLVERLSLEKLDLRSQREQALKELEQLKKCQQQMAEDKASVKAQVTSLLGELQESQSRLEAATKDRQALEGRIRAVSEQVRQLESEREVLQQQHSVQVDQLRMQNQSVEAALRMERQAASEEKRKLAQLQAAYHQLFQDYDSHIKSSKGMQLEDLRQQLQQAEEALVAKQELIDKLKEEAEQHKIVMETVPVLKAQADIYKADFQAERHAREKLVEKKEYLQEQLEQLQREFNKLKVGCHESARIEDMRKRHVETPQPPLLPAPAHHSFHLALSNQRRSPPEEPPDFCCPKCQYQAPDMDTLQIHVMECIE
UniProt P61088: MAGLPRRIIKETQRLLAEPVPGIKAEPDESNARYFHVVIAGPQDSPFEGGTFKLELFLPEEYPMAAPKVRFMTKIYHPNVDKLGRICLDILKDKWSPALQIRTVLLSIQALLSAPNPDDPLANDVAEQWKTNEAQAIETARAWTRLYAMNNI

T1: Cell adhesion molecule 1 (CADM1), endogenous in human T-cell lines (human (endogenous in Jurkat, C8166, MT-2, MT-4)) (UniProt Q9BY67)
T1 sequence: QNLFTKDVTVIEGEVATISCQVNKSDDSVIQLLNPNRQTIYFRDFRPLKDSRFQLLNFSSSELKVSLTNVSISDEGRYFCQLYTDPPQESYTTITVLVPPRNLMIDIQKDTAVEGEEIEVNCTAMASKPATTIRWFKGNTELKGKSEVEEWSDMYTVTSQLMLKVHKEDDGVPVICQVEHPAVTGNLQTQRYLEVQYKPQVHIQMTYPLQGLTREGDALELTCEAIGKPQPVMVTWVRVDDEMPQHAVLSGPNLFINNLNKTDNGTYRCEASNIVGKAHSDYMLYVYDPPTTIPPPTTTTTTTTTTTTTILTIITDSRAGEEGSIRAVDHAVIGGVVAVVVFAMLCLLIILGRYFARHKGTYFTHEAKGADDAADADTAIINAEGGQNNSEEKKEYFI


How the values were obtained:
[1] = target: T1, Cell adhesion molecule 1 (CADM1), endogenous in human T-cell lines (human (endogenous in Jurkat, C8166, MT-2, MT-4)); experiment: co-IP; lipid raft fractions (OptiPrep density gradient, 1% Triton X-100 lysate; fractions 4, 5 and 6) of MT-2 and MT-4 cells expressing control shRNA, and of media-treated MT-2 cells (against 10 mM MβCD, 45 min, under which the interactions were 'impaired'); immunoprecipitated with anti-CADM1, immunoblot anti-TAX1BP1, anti-Tax, anti-NEMO, anti-Ubc13, anti-NRP
[2] = target: Purified recombinant Tax (from the pTaxH6 expression plasmid) (HTLV-1) (UniProt P03409); experiment: co-IP; cell-free system: recombinant Tax (250 ng) incubated with cytosolic extract (S100, 10 mg/ml) of Jurkat, JM4.5.2 (NEMO-deficient), Cadm1+/+ or Cadm1-/- MEFs with ATP, 30°C, 1 hour; immunoprecipitated with anti-Tax, immunoblot anti-NEMO, anti-IKKα, anti-IKKβ; only the target purified
[3] = target: T1, Cell adhesion molecule 1 (CADM1), endogenous in human T-cell lines (human (endogenous in Jurkat, C8166, MT-2, MT-4)); experiment: co-IP; lysates of C8166, MT-2 and MT-4 cells immunoprecipitated with anti-CADM1 (control anti-IgG), immunoblot anti-Tax
[4] = target: HTLV-1 Tax, expressed by lentiviral transduction in Jurkat T-cells (HTLV-1) (UniProt P03409); experiment: co-IP

Molecule	binding [1]	binding [2]	other results
NEMO-Related Protein (NRP), endogenous in HTLV-1-transformed human T-cell lines (from UniProt Q96CV9 1-577)	binds		
NEMO (IKKγ), endogenous in human T-cell lines (from UniProt Q9Y6K9 1-419)	binds	binds	
NEMO, endogenous in MEFs (from UniProt O88522 1-412)		binds	
Ubiquitin-conjugating enzyme Ubc13, endogenous in HTLV-1-transformed human T-cell lines (from UniProt P61088 1-152)	binds		
HTLV-1 Tax in HTLV-1-transformed T-cell lines C8166, MT-2 and MT-4 (from UniProt P03409 1-353)	binds		binding [3]: binds
Cell adhesion molecule 1 (CADM1), endogenous in human T-cell lines (protein, UniProt Q9BY67 45-442) QNLFTKDVTVIEGEVATISCQVNKSDDSVIQLLNPNRQTIYFRDFRPLKDSRFQLLNFSSSELKVSLTNVSISDEGRYFCQLYTDPPQESYTTITVLVPPRNLMIDIQKDTAVEGEEIEVNCTAMASKPATTIRWFKGNTELKGKSEVEEWSDMYTVTSQLMLKVHKEDDGVPVICQVEHPAVTGNLQTQRYLEVQYKPQVHIQMTYPLQGLTREGDALELTCEAIGKPQPVMVTWVRVDDEMPQHAVLSGPNLFINNLNKTDNGTYRCEASNIVGKAHSDYMLYVYDPPTTIPPPTTTTTTTTTTTTTILTIITDSRAGEEGSIRAVDHAVIGGVVAVVVFAMLCLLIILGRYFARHKGTYFTHEAKGADDAADADTAIINAEGGQNNSEEKKEYFI			binding [4]: binds
